These are yes or no findings as the source states them, for the method shown. Some entries that bind do so weakly or less than the wild type. For some of these results: Where a sequence is shown, tags or fusion partners need not be part of it.
Experiments:
[1] = target: T1, human sRANKL with his-sumo tag (human) (UniProt O14788); experiment: pull-down; 200 ng his-sumo human sRANKL held on Ni gel; 100 ng Fc tag human OPG in PBS, 4 °C, 30 min, with S3-15 at 0, 10, 1 and 0.3 uM; bound OPG measured by OPG ELISA kit; both purified
T1 sequence: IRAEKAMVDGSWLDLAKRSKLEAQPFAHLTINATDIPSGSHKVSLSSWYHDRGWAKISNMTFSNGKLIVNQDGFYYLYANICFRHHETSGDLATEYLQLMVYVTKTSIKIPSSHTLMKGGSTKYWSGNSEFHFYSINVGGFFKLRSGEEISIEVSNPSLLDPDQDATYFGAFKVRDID

By UniProt entry, the sequences of proteins in these tests, tags left out.
UniProt O35235: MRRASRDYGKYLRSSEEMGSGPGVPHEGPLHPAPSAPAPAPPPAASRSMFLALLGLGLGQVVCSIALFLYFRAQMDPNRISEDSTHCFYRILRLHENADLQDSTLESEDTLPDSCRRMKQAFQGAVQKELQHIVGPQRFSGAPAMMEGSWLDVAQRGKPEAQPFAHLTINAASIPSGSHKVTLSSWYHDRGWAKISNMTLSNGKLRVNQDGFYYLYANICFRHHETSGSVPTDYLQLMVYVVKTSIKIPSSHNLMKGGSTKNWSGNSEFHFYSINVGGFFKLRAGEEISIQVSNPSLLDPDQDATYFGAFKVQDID

[2] = target: mRANKL on differentiated MC3T3-E1 cells (mouse (endogenous in MC3T3-E1)) (UniProt O35235); experiment: binding of soluble OPG to fixed cells, bound OPG measured by ELISA of the cell lysate; differentiated MC3T3-E1 cells, or HEK 293T cells transfected with full length mouse or human RANKL; 1 M NaCl wash, fixed with 70% ethanol; 100 ng OPG in PBS with or without 1 uM S3-15, 30 min, 4 °C; only the binder purified
[3] = target: full length mouse RANKL on HEK 293T cells (mouse) (UniProt O35235); experiment: as above
[4] = target: T2, full length human RANKL on HEK 293T cells (human) (UniProt O14788); experiment: as above
T2 sequence: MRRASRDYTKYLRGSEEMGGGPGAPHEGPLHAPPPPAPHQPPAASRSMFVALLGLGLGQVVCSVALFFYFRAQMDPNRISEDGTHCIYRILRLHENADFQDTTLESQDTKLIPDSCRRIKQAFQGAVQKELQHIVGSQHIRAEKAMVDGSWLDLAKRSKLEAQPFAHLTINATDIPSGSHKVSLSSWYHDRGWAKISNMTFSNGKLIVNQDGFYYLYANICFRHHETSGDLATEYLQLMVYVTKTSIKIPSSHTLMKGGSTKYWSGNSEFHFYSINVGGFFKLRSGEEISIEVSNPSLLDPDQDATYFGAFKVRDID

B1: Fc tag human OPG (Fc fusion, UniProt O00300 22-401)
chain: ETFPPKYLHYDEETSHQLLCDKCPPGTYLKQHCTAKWKTVCAPCPDHYYTDSWHTSDECLYCSPVCKELQYVKQECNRTHNRVCECKEGRYLEIEFCLKHRSCPPGFGVVQAGTPERNTVCKRCPDGFFSNETSSKAPCRKHTNCSVFGLLLTQKGNATHDNICSGNSESTQKCGIDVTLCEEAFFRFAVPTKFTPNWLSVLVDNLPGTKVNAESVERIKRQHSSQEQTFQLLKLWKHQNKDQDIVKKIIQDIDLCENSVQRHIGHANLTFEQLRSLMESLPGKKVGAEDIEKTIKACKPSDQILKLLSLWRIKNGDQDTLKGLMHALKHSKTYHFPKTVTQSLKKTIRFLHSFTMYKLYQKLFLEMIGNQVQSVKISCL
Which binding [1] does the source give for B1 here?
The binding was “binds”.

B2: mouse OPG (Sino, China) (receptor, UniProt O08712 22-401)
chain: ETLPPKYLHYDPETGHQLLCDKCAPGTYLKQHCTVRRKTLCVPCPDHSYTDSWHTSDECVYCSPVCKELQSVKQECNRTHNRVCECEEGRYLEIEFCLKHRSCPPGSGVVQAGTPERNTVCKKCPDGFFSGETSSKAPCIKHTNCSTFGLLLIQKGNATHDNVCSGNREATQKCGIDVTLCEEAFFRFAVPTKIIPNWLSVLVDSLPGTKVNAESVERIKRRHSSQEQTFQLLKLWKHQNRDQEMVKKIIQDIDLCESSVQRHLGHSNLTTEQLLALMESLPGKKISPEEIERTRKTCKSSEQLLKLLSLWRIKNGDQDTLKGLMYALKHLKTSHFPKTVTHSLRKTMRFLHSFTMYRLYQKLFLEMIGNQVQSVKISCL
How did the binding [2] turn out when B2 was run?
The binding was “binds”.

And the binding [3]?
The binding was “binds”.

B3: OPG added to HEK 293T cells with human RANKL (receptor, UniProt O08712 22-401)
chain: ETLPPKYLHYDPETGHQLLCDKCAPGTYLKQHCTVRRKTLCVPCPDHSYTDSWHTSDECVYCSPVCKELQSVKQECNRTHNRVCECEEGRYLEIEFCLKHRSCPPGSGVVQAGTPERNTVCKKCPDGFFSGETSSKAPCIKHTNCSTFGLLLIQKGNATHDNVCSGNREATQKCGIDVTLCEEAFFRFAVPTKIIPNWLSVLVDSLPGTKVNAESVERIKRRHSSQEQTFQLLKLWKHQNRDQEMVKKIIQDIDLCESSVQRHLGHSNLTTEQLLALMESLPGKKISPEEIERTRKTCKSSEQLLKLLSLWRIKNGDQDTLKGLMYALKHLKTSHFPKTVTHSLRKTMRFLHSFTMYRLYQKLFLEMIGNQVQSVKISCL
With B3 as the binder, how does the binding [4] read?
The binding was “binds”.
